Test results taken from US20040253224A1, “Mammalian mucinase, its recombinant production, and its use in therapy or prophylaxis against diseases in which mucus is involved or infectious diseases” (priority 2001, published 2004).
At least one compound was matched to its structure with a doubt left.

Test system: Candida albicans strain CAi-4 spheroplasts
Experiment: chitin content of cell wall of regenerating spheroplasts (Calcofluor white)
Type: cell-based
Settings: allosamidin present during the incubation
Procedure: […]. […] Chitinase enzyme preparations were added in 3 μg/ml.
In addition, the mouse acidic chitinase and chitotriosidase were both able to digest chitin in the cell wall of regenerating spheroplasts of Candida albicans. The chitin content of the cell wall was determined with the Calcofluor white stain. When regenerating cells were incubated for 2 hours with 3 μg per ml recombinant chitotriosidase or 3 μg per ml recombinant mouse acidic chitinase, the chitin content was reduced by 27% and 33%, respectively.

For CC(=O)N[C@H]1[C@H](O[C@H]2[C@@H](O)[C@@H](NC(C)=O)[C@H](O[C@H]3[C@H](O)[C@H]4N=C(N(C)C)O[C@H]4[C@@H]3CO)O[C@@H]2CO)O[C@H](CO)[C@@H](O)[C@H]1O [allosamidin], the “effect of concomitant allosamidin on chitin digestion by the recombinant chitinases” value was “completely abolished the effect of both recombinant chitinases”.
